Measured values reported in the supplement of paper PMC11732987, “Enantioselective OTUD7B fragment discovery through chemoproteomics screening and high-throughput optimisation” (Communications Chemistry, 2025).
The other results are listed elsewhere or left out. The data scatter; read single values as rough.

Amino acid sequences for entries named in this document (tags omitted). A change or cut given only in a name is not applied to a line headed by its entry. Residues count along the entry.
UniProt Q5T3U5: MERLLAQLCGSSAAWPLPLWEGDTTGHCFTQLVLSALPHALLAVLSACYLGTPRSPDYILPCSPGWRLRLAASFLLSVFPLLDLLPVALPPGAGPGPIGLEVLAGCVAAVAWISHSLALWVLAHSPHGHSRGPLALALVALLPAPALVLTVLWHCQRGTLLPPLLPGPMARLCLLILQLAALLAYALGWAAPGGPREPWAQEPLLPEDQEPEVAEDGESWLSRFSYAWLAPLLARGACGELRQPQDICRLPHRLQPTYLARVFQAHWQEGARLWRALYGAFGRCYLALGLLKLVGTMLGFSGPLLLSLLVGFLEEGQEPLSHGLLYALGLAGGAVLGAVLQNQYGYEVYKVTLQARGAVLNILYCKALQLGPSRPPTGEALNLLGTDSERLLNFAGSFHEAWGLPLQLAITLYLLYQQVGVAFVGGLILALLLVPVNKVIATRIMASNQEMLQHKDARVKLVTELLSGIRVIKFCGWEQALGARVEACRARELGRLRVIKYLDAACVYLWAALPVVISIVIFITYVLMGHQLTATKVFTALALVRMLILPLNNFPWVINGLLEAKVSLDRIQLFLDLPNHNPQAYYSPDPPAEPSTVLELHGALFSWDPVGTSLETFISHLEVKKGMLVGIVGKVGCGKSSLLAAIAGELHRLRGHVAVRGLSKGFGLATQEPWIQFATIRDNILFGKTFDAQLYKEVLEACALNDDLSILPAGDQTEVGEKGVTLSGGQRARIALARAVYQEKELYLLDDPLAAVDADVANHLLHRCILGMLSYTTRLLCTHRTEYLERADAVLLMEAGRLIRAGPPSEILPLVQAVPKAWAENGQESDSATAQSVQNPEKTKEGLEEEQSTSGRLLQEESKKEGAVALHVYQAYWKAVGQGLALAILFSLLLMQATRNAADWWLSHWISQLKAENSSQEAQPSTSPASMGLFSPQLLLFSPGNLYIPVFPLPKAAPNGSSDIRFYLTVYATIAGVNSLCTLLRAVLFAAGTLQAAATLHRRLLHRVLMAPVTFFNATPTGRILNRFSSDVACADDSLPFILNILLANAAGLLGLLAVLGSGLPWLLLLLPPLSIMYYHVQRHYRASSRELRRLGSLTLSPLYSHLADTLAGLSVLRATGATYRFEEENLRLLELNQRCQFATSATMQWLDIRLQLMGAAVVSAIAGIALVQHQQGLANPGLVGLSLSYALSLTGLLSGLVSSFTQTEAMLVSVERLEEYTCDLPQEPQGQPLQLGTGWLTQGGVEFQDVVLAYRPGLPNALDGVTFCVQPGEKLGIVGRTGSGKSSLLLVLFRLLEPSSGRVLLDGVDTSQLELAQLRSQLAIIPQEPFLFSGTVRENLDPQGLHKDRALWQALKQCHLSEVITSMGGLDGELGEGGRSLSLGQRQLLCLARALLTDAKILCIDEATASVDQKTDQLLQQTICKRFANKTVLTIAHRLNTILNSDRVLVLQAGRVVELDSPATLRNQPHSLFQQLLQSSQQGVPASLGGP
UniProt Q8WTS1, 298-318: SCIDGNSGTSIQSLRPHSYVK
UniProt Q9BTE6: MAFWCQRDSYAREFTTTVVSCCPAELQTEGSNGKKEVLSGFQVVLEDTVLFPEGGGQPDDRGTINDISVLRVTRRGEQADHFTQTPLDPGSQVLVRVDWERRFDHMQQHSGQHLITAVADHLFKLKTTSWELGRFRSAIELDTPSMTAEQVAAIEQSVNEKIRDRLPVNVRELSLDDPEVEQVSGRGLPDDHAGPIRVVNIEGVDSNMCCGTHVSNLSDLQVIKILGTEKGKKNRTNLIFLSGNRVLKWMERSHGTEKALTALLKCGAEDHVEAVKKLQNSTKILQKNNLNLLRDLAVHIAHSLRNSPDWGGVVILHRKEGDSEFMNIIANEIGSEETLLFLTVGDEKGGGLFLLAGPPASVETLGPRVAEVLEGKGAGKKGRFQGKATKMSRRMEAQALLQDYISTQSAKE
UniProt O15440: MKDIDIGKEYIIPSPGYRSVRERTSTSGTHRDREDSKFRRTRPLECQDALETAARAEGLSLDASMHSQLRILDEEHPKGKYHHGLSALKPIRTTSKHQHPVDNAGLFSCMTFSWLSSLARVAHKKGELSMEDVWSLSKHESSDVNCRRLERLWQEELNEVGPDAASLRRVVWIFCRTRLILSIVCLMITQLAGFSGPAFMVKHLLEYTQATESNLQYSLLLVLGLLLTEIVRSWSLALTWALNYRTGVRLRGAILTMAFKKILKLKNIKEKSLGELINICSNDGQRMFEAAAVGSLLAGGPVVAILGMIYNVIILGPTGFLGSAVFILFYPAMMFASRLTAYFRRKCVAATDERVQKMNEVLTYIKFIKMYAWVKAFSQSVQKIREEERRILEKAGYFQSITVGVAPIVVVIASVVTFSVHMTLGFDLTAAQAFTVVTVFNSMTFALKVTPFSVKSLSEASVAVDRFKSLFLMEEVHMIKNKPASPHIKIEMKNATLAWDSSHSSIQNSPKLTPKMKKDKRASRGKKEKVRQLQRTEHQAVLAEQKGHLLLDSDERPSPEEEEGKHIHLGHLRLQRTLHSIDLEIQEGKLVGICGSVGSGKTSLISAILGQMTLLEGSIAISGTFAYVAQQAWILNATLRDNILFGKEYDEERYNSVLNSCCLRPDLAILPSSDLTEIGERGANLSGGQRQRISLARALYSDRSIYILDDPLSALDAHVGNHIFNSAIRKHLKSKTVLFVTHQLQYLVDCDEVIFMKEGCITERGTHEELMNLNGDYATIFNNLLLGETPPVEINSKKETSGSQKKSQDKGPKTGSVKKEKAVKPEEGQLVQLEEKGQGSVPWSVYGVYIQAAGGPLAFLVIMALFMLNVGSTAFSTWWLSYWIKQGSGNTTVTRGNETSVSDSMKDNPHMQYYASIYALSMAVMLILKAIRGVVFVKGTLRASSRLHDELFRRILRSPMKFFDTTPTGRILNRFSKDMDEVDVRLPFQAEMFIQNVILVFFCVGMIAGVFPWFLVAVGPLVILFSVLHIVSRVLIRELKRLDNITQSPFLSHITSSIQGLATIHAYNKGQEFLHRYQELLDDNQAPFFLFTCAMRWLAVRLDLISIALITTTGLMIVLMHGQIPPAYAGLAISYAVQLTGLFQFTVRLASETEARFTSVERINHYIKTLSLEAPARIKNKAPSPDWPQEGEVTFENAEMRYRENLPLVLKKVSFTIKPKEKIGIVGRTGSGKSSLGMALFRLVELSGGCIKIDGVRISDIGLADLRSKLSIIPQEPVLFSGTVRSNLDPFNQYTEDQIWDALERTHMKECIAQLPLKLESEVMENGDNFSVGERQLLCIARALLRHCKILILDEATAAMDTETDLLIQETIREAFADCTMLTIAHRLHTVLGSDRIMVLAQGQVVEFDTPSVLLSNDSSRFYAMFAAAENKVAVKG
UniProt Q9NYB9: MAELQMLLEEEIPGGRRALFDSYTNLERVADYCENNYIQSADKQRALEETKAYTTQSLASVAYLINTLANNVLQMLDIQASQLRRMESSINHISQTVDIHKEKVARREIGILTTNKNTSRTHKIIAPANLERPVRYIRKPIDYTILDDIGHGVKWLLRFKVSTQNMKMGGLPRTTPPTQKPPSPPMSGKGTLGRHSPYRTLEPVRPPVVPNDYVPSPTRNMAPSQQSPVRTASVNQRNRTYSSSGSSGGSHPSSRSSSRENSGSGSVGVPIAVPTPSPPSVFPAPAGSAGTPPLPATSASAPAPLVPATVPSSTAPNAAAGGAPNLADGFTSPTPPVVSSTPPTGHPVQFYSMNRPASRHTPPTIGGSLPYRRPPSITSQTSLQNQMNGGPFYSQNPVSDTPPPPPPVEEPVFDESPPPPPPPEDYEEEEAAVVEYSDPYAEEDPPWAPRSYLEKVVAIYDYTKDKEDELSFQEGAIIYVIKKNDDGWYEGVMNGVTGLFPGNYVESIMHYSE
UniProt Q12979: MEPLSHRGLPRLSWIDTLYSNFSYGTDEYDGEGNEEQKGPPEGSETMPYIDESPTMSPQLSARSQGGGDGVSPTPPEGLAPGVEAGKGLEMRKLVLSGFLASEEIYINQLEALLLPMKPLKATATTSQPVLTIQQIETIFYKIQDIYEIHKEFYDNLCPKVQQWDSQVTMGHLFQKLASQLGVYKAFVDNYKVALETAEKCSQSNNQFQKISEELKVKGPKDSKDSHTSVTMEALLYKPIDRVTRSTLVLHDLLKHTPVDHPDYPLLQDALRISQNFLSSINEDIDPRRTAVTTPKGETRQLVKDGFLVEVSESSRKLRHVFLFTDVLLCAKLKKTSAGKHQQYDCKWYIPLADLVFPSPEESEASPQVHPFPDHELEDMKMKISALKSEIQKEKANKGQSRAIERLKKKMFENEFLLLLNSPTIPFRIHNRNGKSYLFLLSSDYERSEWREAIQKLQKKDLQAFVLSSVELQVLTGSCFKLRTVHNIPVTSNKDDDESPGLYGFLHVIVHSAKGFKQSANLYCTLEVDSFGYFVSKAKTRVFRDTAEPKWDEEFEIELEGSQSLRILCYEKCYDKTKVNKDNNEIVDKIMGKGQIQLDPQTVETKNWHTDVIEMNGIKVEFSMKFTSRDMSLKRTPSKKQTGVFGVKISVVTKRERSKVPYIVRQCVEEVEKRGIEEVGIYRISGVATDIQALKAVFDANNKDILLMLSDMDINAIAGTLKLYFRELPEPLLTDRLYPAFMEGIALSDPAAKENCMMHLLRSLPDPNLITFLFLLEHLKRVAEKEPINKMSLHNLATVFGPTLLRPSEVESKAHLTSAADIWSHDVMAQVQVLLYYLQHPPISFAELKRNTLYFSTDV
UniProt Q9UG63: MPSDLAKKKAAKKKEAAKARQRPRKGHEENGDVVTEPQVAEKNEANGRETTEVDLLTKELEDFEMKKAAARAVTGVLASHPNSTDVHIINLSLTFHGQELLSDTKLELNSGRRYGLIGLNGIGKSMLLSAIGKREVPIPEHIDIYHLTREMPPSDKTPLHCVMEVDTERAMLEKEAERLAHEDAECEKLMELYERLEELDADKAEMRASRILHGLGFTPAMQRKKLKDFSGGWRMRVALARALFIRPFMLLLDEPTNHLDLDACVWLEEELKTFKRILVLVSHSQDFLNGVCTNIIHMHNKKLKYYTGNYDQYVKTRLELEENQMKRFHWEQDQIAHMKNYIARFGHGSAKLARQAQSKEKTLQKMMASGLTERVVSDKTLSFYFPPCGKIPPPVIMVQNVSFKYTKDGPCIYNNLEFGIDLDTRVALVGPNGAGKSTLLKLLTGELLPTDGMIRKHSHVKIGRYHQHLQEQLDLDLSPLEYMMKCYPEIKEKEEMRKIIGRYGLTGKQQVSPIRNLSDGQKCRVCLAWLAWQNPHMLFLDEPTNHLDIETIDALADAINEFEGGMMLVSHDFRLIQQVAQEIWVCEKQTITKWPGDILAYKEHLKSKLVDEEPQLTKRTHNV
UniProt Q4L235: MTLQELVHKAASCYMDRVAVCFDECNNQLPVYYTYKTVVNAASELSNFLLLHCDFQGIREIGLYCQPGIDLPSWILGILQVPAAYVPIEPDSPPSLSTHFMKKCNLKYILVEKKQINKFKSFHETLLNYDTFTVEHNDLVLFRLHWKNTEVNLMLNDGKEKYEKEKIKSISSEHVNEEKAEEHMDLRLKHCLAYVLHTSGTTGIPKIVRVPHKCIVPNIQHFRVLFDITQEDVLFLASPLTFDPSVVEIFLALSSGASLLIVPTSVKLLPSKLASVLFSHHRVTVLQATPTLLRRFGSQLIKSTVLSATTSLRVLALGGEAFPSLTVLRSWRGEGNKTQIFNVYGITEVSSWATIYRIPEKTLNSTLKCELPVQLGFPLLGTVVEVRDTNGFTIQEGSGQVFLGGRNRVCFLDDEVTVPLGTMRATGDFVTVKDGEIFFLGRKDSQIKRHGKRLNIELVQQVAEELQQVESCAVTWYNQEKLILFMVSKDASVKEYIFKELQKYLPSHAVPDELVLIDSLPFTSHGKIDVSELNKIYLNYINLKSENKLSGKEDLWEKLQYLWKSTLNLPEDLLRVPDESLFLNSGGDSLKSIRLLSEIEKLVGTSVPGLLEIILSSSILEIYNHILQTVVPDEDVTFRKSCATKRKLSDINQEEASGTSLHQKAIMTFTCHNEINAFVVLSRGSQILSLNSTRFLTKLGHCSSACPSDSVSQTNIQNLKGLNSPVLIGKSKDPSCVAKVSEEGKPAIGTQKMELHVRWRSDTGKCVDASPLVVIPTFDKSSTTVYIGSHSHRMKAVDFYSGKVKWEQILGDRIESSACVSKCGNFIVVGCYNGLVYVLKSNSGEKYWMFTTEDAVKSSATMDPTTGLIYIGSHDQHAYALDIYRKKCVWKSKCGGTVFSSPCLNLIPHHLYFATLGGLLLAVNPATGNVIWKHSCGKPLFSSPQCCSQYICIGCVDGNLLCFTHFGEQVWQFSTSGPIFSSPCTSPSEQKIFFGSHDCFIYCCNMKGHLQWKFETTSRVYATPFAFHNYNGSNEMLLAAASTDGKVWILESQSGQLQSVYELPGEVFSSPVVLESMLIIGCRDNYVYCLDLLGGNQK

compound: ClCC(=O)N[C@H]1CCCc2ccccc12; test: log2 mean competition ratio of IA-DTB cysteine labelling (DMSO/compound) (log2 ratio); higher = stronger cysteine engagement by compound; settings: 50 µM; treatment time: 4 h; cell line lysate: HEK293T
Protocol: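 IA-DTB competitive cysteine chemoproteomics in HEK293T RIPA lysate. Lysates were treated with compound 29 or 30 at 50 or 200 µM for 4 h, then IA-DTB (500 µM, 1 h), trypsin-digested, NeutrAvidin-enriched and analysed by diaPASEF. Competition ratio = intensity DMSO / intensity compound (n=4 treated, n=64 DMSO); binding: mean log2 CR ≥ 1 and p ≤ 0.05 plus QC filters. Target is the cysteine site.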

Row | Target | log2 mean competition ratio
1 | ABCC10 C1425 (UniProt Q5T3U5) | -0.258
2 | ABHD5 C299 (UniProt Q8WTS1) | 0.0636
3 | AARSD1 C266 (UniProt Q9BTE6) | 0.123
4 | ABCC5 C146 (UniProt O15440) | -0.0264
5 | ABI2 C33 (UniProt Q9NYB9) | -0.236
6 | ACAP2 C53 (UniProt Q15057) | 0.393
7 | ABL1 C464 (UniProt P00519) | 0.313
8 | ABR C667 (UniProt Q12979) | -0.0979
9 | ABCF2 C186 (UniProt Q9UG63) | -0.0992
10 | AARS1 C671 (UniProt H3BPK7) | -0.416
11 | ABCF2 C388 (UniProt Q9UG63) | 0.47
12 | AAK1 C288 | 0.607
13 | ACAT1 C119 | -0.00712
14 | ABCC5 C280 (UniProt O15440) | 0.157
15 | AASDH C736 (UniProt Q4L235) | 0.0549
16 | ACAA2 C179 | -0.0373
17 | ABHD16A C416 (UniProt O95870) | -0.144
18 | ABR C346 (UniProt Q12979) | 0.0313
19 | ACADSB C385 (UniProt P45954) | 0.479
20 | ABCF1 C515 | 0.46

same assay, conditions: 200 µM; treatment time: 4 h; cell line lysate: HEK293T

Row | Target | log2 mean competition ratio
21 | ABCC10 C1425 (UniProt Q5T3U5) | 0.0385
22 | ABHD5 C299 (UniProt Q8WTS1) | 0.0412
23 | AARSD1 C266 (UniProt Q9BTE6) | 0.0466
24 | ABCC5 C146 (UniProt O15440) | 0.769
25 | ABI2 C33 (UniProt Q9NYB9) | 0.185
26 | ACAP2 C53 (UniProt Q15057) | -0.0666
27 | ABL1 C464 (UniProt P00519) | -0.152
28 | ABR C667 (UniProt Q12979) | -0.04
29 | ABCF2 C186 (UniProt Q9UG63) | 0.0205
30 | AARS1 C671 (UniProt H3BPK7) | -0.459
31 | ABCF2 C388 (UniProt Q9UG63) | 0.466
32 | AAK1 C288 | 0.276
33 | ACAT1 C119 | 0.512
34 | ABCC5 C280 (UniProt O15440) | -0.112
35 | AASDH C736 (UniProt Q4L235) | -0.11
36 | ACAA2 C179 | -0.173
37 | ABHD16A C416 (UniProt O95870) | 0.248
38 | ABR C346 (UniProt Q12979) | -0.0781
39 | ACADSB C385 (UniProt P45954) | -0.0194
40 | ABCF1 C515 | 0.111
